Tested on: Zucker diabetic fatty (ZDF) rat
Assay: Metabolic parameters of ZDF rats treated with LR-90 (Example 1)
Format: in vivo
Settings: mean ± SEM
Description: As noted, previous studies have shown that LR-90, a new inhibitor of AGE formation, prevented the development of experimental type 1 diabetic nephropathy. In the present Example, the effects of LR-90 were examined in the Zucker diabetic fatty (ZDF) rat, a model of type 2 diabetes and metabolic syndrome, and the mechanisms by which it may protect against renal injury were investigated. In this Example, male ZDF rats were treated without or with LR-90 from age 13 to 40 weeks. Metabolic and kidney functions and renal histology were evaluated. AGE accumulation and the production of the receptor for AGE (AGER) were measured. Profibrotic growth factors, extracellular matrix proteins and intracellular signalling pathways associated with glomerular and tubular damage were also analysed. […]
All animal studies were carried out in compliance with policies outlined in The Guide for the Care and Handling of Laboratory Animals (NIH Publication No. 85-23) that have been approved by the City of Hope Animal Care Committee. […] Food, water intake, body weight and blood glucose levels were monitored periodically. Systolic blood pressure was measured by tail-cuff plethysmography (CODA2 Blood Pressure System; Kent Scientific, Torrington, Conn., USA). […] Plasma glucose, lipids and Nε-(carboxymethyl)lysine-AGE Plasma glucose was measured using a glucose analyzer (2300 STAT; YSI, Yellowsprings, Ohio, USA). […]

SMILES: CC(C)(Oc1ccc(NC(=O)Nc2ccc(Cc3ccc(NC(=O)Nc4ccc(OC(C)(C)C(=O)O)cc4)c(Cl)c3)cc2Cl)cc1)C(=O)O [LR-90, methylene bis[4,4′-(2-chlorophenylureidophenoxyisobutyric acid)]]
- Body Weight (LR-90 50 mg/l in drinking water from 13 to 40 weeks of age, at 40 weeks, n = 6): 347 ± 32 g
- Heart Rate (LR-90 50 mg/l in drinking water, at 40 weeks of age): 330 ± 12 beats/min
